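Assay of Toxoplasma gondii numbers, read through their beta-galactosidase reporter with a colour substrate. Tested at 50 µM. Higher reads as fewer parasites (inferred from which compounds were picked for retests). Of about 18,000 compounds tested this way, about 170 (0.94%) reached 50% or more in at least one test.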

The filed quantity is “Percent Effect” (%).
The controls that fix the scale are not given in the record; negative values are as filed.
Compounds were drawn at random from those tested, without regard to their results.

- Cc1ccc(CNC(=O)c2nccs2)cn1 | 2.695%
- Cc1ccoc1C(=O)Nc1cccc(CO)n1 | 49.42%
- CS(=O)(=O)CCNC(=O)CCN1CCCCCCC1 | -12.58%
- CCc1nnc(NCCCc2cccnc2)o1 | -5.471%
- CN1CCCN(C(=O)Cc2c(F)cccc2Cl)CC1 | -24.35%
- c1cn2c(n1)CCC2 | 8.411%
- CCc1nsc(N2CCNCC2)n1 | 12.31%
- CCCn1ccnc1CNC(=O)c1ccc(CSC)o1 | -1.35%
- CCOCCOc1cc(C(N)=O)ccc1C | 30.3%
- Cc1cccc(NCC2(CS(C)(=O)=O)CC2)n1 | -0.3302%
- NC1CCN(C(=O)Nc2ccccc2)C1 (configuration not stated) | 93.84%
- CCN1CCN(CC(=O)Nc2cc(C)nn2C)CC1 | 0.2326%
- O=C1CC[C@@H](CO)N1 | -0.2195%
- NCC1CS(=O)(=O)c2ccccc21 (configuration not stated) | 29.86%
- NC(=O)C1CCN(CC(O)COc2ccccc2)CC1 (configuration not stated) | 4.321%
- Cc1cc(CNC(C)Cn2cccn2)on1 (configuration not stated) | 9.614%
- OCCN(CCN1CCOCC1)Cc1ccncc1Cl | -9.366%
- Cc1n[nH]cc1CNCCNc1ncc(Cl)cc1Cl | 5.335%
- CC(=O)NCCNC(=O)c1cc(Cl)c(Cl)n1C | -20.76%
- CCNS(=O)(=O)c1ccc(CN)cc1 | 2.969%
- Cc1nnc(NC(=O)c2ccccc2O)s1 | -12.08%
- Cc1ccoc1C(=O)N1CCCN(CC(N)=O)CC1 | -7.236%
- OCC1(Cc2ccc(F)cc2)CCNC1 (configuration not stated) | 29.69%
- Cc1c(C#N)nn(-c2cccnc2)c1N | -4.936%
- CC(C)(CO)NC(=O)Nc1cccc2cccnc12 | 8.164%
- CN(C)c1nnc(SCCCC#N)s1 | -2.729%
- O=C(CCN1CCC(O)CC1)Nc1ccc(F)c(F)c1 | -12.91%
- COc1cc(C(=O)NC[C@@H](O)c2ccc(C)cc2)on1 | -4.723%
- CC1CCCCN1C(=O)NC1CCC2(CC1)OCCO2 (configuration not stated) | 13.79%
- CC1CN(C)CCN1Cc1nc(N)nc(N(C)C)n1 (configuration not stated) | 17%
- Clc1cncc(NCC2CN(C3CC3)CCO2)n1 (configuration not stated) | 5.103%
- NC(=O)CN(Cc1ccccc1)C(=O)C1CCCO1 (configuration not stated) | -3.41%
- CC(CO)(NC(=O)NCc1ccncc1)C1CC1 (configuration not stated) | 8.732%
- Cc1noc(C)c1CNC(=O)N(C)Cc1ccncc1 | 5.535%
- O=c1ccc(Br)cn1CCO | 1.137%
- NC[C@@H]1C[C@H]2CC[C@H]1O2 | -20.16%
- O=C(NCC(O)C1CCCCC1)[C@@H](O)c1ccccc1 (some centres not stated) | -2.815%
- COc1ccc(CCNC2=NCCS2)cc1 | 19.12%
- COc1ccc(OCC(=O)NCCN2CCCC2)cc1 | 0.212%
- COc1ccccc1C(O)CNc1cccc(C)n1 (configuration not stated) | -0.8779%
- NC(=O)[C@@H]1Cc2ccccc2N1C(=O)C1CCOCC1 | -11.04%
- COc1ccc(CN2CCN(C)CC2)c(OC)c1C | -4.069%
- CNCCn1cc(Br)cn1 | -18.46%
- CCC(O)CN1CCN(c2ncccc2Br)CC1 (configuration not stated) | -8.122%
- CCn1ncnc1CN1CCCC(CO)(CCOC)C1 (configuration not stated) | 4.917%
- CC(=O)Nc1ccc(C(=O)OC2CCCCC2=O)s1 (configuration not stated) | 1.062%
- C[C@@]1(O)CCN(C(=O)COCc2ccccc2)C[C@@H]1O | 15.74%
- CC(C)C(NC(=O)CS(C)(=O)=O)c1ccccn1 (configuration not stated) | 3.171%
- Nc1ccc2c(n1)NC(=O)CO2 | -6.6%
- Nc1nnc(CCCN2C(=O)c3ccccc3C2=O)s1 | 11.38%

6 of the entries, repeated:

SMILES	effect
c1cn2c(n1)CCC2	8.411
Cc1nnc(NC(=O)c2ccccc2O)s1	-12.08
CC1CN(C)CCN1Cc1nc(N)nc(N(C)C)n1 (configuration not stated)	17
O=C1CC[C@@H](CO)N1	-0.2195
O=c1ccc(Br)cn1CCO	1.137
CN1CCCN(C(=O)Cc2c(F)cccc2Cl)CC1	-24.35

Data taken from ChEMBL document CHEMBL3988442, “University of Dundee, Small-Polar-MMV Screening Library” (2021).